Assay results as given in PubChem BioAssay AID2685 (National Center for Advancing Translational Sciences (NCATS), 2010).
The list shows a part of the results. These are further read-outs of the screen, such as a control signal, another cell line or another target. No call is given for them. Most of these compounds were active or inconclusive in the main read-out, so they are no random draw. The note in brackets gives the kind of curve behind each potency; many fits are weak.

Assay: qHTS Assay for Lipid Storage Modulators in Drosophila S3 Cells;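 as to cell number change: cells counted by Cell Tracker Red CMTPX staining in the red channel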
Details: BODIPY lipid droplet fluorescence, 18-24 h; for cell number change: measured here: cell count max response, cells fed with added oleic acid
Procedure, shortened: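 Laser-scanning cytometry quantifies lipid droplet accumulation (500–530 nm total intensity; droplet/cell object ratio) in oleic acid-fed (400 uM added) Drosophila S3 cells treated with a concentration series. 20 uM Triacsin C defined 100% inhibition.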

[1] = measured here: lipid fluorescence (Fed channel) AC50, cells fed with added oleic acid
[2] = measured here: cell number channel AC50, cells fed with added oleic acid

Row | SMILES | cell number change [%] | AC50 [1] | AC50 [2]
1 | CC(C(=O)N1CCCCCC1)N(c1ccc(Cl)cc1)S(C)(=O)=O (stereo unspecified) | -1.72 |  | 
2 | CC1CCN(C(=O)C(=O)c2cn(CC(=O)N3CCCC3)c3ccccc23)CC1 | -5.78 |  | 
3 | COc1ccc(-n2cc(-c3ccccc3)c3c(NCCOCCO)ncnc32)cc1 | -86.6 | 0.651 µM [falling, full curve, poor fit] | 
4 | CCCCN1C(=O)/C(=C2\SC(N3CCOCC3)=NC2=O)c2ccccc21 |  | 20.6 µM [falling, single point] | 
5 | CCN(C(=O)COC(=O)c1cc(S(=O)(=O)N2CCOCC2)ccc1F)C1CCS(=O)(=O)C1 (stereo unspecified) | 9.59 | 16.4 µM [falling, single point] | 
6 | Cn1nc(-c2ccccc2)c(C(=O)NCC(=O)O)c1Cl | -68.2 | 0.231 µM [falling, full curve] | 0.206 µM [falling, full curve]
7 | COc1ccc(S(=O)(=O)NCCc2c[nH]c3ccccc23)cc1OC | 12.5 |  | 
8 | COCCNC(=O)C(c1ccc(O)cc1)N(Cc1cccs1)C(=O)CCC(=O)Nc1ccccn1 (stereo unspecified) | 10.5 | 29.1 µM [rising, single point] | 
9 | Cc1ccc2oc(-c3cccc(NC(=O)c4ccc(Br)o4)c3)nc2c1 | 14.4 |  | 
10 | COc1cc2c(cc1OC)CN(CC(=O)NC(=O)NCc1ccccc1)CC2 | -22 |  | 
11 | CCOCc1nnc(NC(=O)C2CCN(C(=O)c3ccco3)CC2)s1 | 22.3 | 29.1 µM [falling, single point] | 0.00461 µM [rising, full curve, poor fit]
12 | O=P(CCCCCCCCCP(=O)(c1ccccc1)c1ccccc1)(c1ccccc1)c1ccccc1 | -77.2 | 29.1 µM [falling, single point] | 23.1 µM [falling, single point]
13 | CS(=O)(=O)N(Cc1ccccc1)c1ccc(C(=O)NN=C2CCCCCC2)cc1 | 10.2 | 0.461 µM [rising, full curve, poor fit] | 
14 | O=C(CSc1n[nH]c(-c2ccccc2F)n1)NCC(=O)Nc1ccc(F)c(F)c1F |  | 1.64 µM [rising, partial curve, poor fit] | 
15 | COc1ccccc1CNS(=O)(=O)c1ccc(C)cc1 |  | 18.4 µM [rising, partial curve] | 
16 | COc1ccc(N2CCN(C(=O)COc3ccc4c(C)cc(=O)oc4c3C)CC2)cc1 | 17.9 | 23.1 µM [rising, partial curve, poor fit] | 
17 | CCOC(=O)CSc1ccc(C(=O)N2CCN(C)CC2)cc1[N+](=O)[O-] | 21.4 | 4.11 µM [rising, single point] | 
18 | OCCNCCOc1ccccc1F | -103 | 23.1 µM [falling, partial curve, poor fit] | 18.4 µM [falling, partial curve]
19 | O=C(Nc1ccc(F)cc1)N(Cc1nnc2n1CCCCC2)c1ccccc1 | -0.949 |  | 

Row | SMILES | cell number change [%] | AC50 [1] | AC50 [2]
20 | N/C(=N\OC(=O)CN1C(=O)c2ccccc2C1=O)c1ccc(Br)cc1 | 22.3 | 6.51 µM [rising, single point] | 
21 | O=C(Nc1nc(-c2ccncc2)cs1)c1ccco1 | -9.95 | 7.31 µM [rising, partial curve] | 
22 | CN(C)c1nc(NCc2ccccc2)nc(SCC(N)=O)n1 | -23.5 | 0.517 µM [rising, single point] | 
23 | CCOC(=O)c1c(NC(=O)COC(=O)C2CCC2)sc(C(=O)N(C)C)c1C |  | 0.164 µM [falling, full curve, poor fit] | 
24 | N/C(=N\OS(=O)(=O)c1ccc(Cl)cc1)c1cccnc1 | 34 |  | 29.1 µM [rising, single point]
25 | N#Cc1ccc(C23CC4(C2)[C@H](CN(Cc2ccc(-c5ccccc5)cc2)[C@@H]4c2ccccc2)C3c2ccc(Cl)nc2)cc1 (stereo partly specified) | 12.4 | 6.51 µM [rising, partial curve] | 
26 | CC(=O)Nc1cccc(NC(=O)c2cc(-c3ccccn3)nc3ccc(Cl)cc23)c1 | -10.8 |  | 
27 | Cc1ccc(S(=O)(=O)N2CN(Cc3ccco3)c3nc4ccccc4nc32)cc1 | -31 | 23.1 µM [falling, partial curve, poor fit] | 5.8 µM [falling, partial curve, poor fit]
28 | CC(=O)Oc1ccccc1C(=O)Nc1ncc([N+](=O)[O-])s1 | -60.9 | 16.4 µM [falling, single point] | 
29 | O=C(CN1CCCCCC1)Nc1ccc(Oc2ccccc2)cc1 | -34.1 | 32.6 µM [falling, single point] | 29.1 µM [falling, single point]
30 | C=CCC(C(=O)c1ccccc1)[N+](C)(C)CC=C (stereo unspecified) | -19.6 | 0.116 µM [falling, full curve, poor fit] | 
31 | CCOc1ccccc1NC(=O)CN(c1ccc(C)cc1)S(=O)(=O)c1c(C)n[nH]c1C | 32.2 | 9.2 µM [rising, partial curve] | 0.461 µM [rising, partial curve, poor fit]
32 | CN(C)CCCNC(=O)/C(=N\O)c1ccccc1 | -17.3 | 0.00651 µM [falling, full curve, poor fit] | 
33 | Cc1cccc(NC(=O)/C(C#N)=C\c2cc(C)n(-c3ccc(C(=O)O)cc3)c2C)c1 | -22.2 |  | 5.8 µM [falling, partial curve]
34 | CCCOC(=O)c1ccc(NC(=O)Oc2ccccc2)cc1 | -20.6 | 16.4 µM [falling, single point] | 
35 | Cc1cc(C)cc(OCc2nnc(SCC(=O)OC3CCCCC3)o2)c1 | -14 | 3.26 µM [falling, full curve, poor fit] | 
36 | Cc1c(NC(=O)COC(=O)C(c2ccc(Cl)cc2)C(C)C)c(=O)n(-c2ccccc2)n1C (stereo unspecified) |  | 1.46 µM [rising, partial curve] | 1.16 µM [rising, partial curve]
37 | Cc1nc(NC(=O)/C=C/c2ccccc2)sc1C(=O)N1CCCCC1 | 36.4 | 32.6 µM [rising, partial curve, poor fit] | 8.2 µM [rising, partial curve, poor fit]
